{
  "sequences": {"note": "Protein sequences, listed by entry. Tags and fused reporters are not part of them. Residues count along the entry.", "UniProt P14207, 17-230": "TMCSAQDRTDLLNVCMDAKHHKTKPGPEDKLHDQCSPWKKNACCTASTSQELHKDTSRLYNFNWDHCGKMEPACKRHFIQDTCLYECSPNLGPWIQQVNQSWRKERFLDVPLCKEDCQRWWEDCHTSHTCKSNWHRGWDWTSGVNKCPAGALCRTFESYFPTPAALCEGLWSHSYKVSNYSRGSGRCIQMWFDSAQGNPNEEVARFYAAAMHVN"},
  "source": "patent US8466111B2",
  "about": "“Cyclopenta{G}quinazoline derivatives for the treatment of rheumatoid arthritis or acute myeloid leukaemia” (BTG International Limited, priority 2008, dated 2013)",
  "molecular_target": "T1, FR-β (Homo sapiens, UniProt P14207)",
  "T1 construct": "expressed in transfected cells; host or cells: Chinese Hamster Ovary cells (CHO-β / CHO-FR-β)",
  "assay": "Intact cell competitive binding of [3H]-folic acid to FR-β (CHO-β cells)",
  "settings": "FR-β (CHO-β) versus FRα (KB)",
  "procedure": "An intact cell binding assay for competitive binding of [^3H]-folic acid and novel anti-folate drugs to FR-β and FR-α was performed essentially as described previously. See Mol. Pharmacol. 1995; 48: […] and Cancer Res. 1995; 55(17): 3795-3802 (both Westerhof et al.). Briefly, CHO-β cells (FR-β transfected Chinese Hamster Ovary cells) and KB cells (FR-α expressing cells) were detached by incubation in PBS+1 mM EDTA. Detached cells were suspended in ice-cold HEPES-buffered saline (140 mM NaCl, 20 mM HEPES, 6 mM KCl, 2 mM MgCl2, 6 mM D-glucose, pH 7.4 with NaOH) to a cell concentration of 3×10^6 and 1×10^6 cells/ml, respectively. One ml of cell suspension was added to a series of Eppendorf tubes containing […] [^3H]-folic acid (specific radioactivity: 2,000 dpm/μmol) in the absence or presence of increasing concentrations of natural folate or folate antagonists. Following 10 minutes at 4° C., cells were centrifuged in an Eppendorf centrifuge (30 s, 10,000 rpm), the supernatant was aspirated and cell pellets were resuspended in 200 μl water and analysed for radioactivity (Optima Gold scintillation fluid, United Technologies, Packard, Brussels, Belgium). Non-specific binding of [^3H] […] For comparison, data for affinities of the RFC for natural folates and folate antagonists were presented from previous studies. See. […]",
  "note": "Some of these results come from one statement about several compounds together.",
  "data": [
    {"smiles": "C#CCN(Cc1cc2c(=O)[nH]c(C)nc2cc1C)c1ccc(C(=O)N[C@@H](CCc2nn[nH]n2)C(=O)O)c(F)c1", "note": "[BGC 9331]", "values": [
      {"measurement": "FR-β binding affinity, fold lower than for FRα", "value": "16-30 fold"}
    ]}
  ]
}
